Laboratory results from patent US20090062401A1, “DECALINE-DERIVED COMPOUNDS AS […] ACTIVE AGENTS” (UNIVERSITAT DORTMUND, priority 2004, published 2009).
Some of these results come from one statement about several compounds together. For at least one compound, name, drawing or mass did not settle the structure.

By UniProt entry, the sequences of proteins in these tests, tags left out. Where a name states a change or a piece, a line headed by the entry shows the natural chain unless it says otherwise.
UniProt P28845: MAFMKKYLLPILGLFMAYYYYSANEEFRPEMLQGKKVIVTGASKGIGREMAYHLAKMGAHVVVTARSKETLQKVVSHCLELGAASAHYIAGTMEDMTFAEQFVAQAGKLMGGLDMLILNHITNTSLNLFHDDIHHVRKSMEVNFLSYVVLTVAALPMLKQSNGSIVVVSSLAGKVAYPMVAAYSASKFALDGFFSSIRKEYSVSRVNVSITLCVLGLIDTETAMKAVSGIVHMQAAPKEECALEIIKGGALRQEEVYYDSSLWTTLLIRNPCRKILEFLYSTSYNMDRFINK

These compounds were tested against T1, Cdc25A (Homo sapiens, UniProt P30304) (assay: Cdc25A phosphatase inhibition). Settings: read-out: IC50 Target Cdc25A.
T1 sequence (P30304 1-524): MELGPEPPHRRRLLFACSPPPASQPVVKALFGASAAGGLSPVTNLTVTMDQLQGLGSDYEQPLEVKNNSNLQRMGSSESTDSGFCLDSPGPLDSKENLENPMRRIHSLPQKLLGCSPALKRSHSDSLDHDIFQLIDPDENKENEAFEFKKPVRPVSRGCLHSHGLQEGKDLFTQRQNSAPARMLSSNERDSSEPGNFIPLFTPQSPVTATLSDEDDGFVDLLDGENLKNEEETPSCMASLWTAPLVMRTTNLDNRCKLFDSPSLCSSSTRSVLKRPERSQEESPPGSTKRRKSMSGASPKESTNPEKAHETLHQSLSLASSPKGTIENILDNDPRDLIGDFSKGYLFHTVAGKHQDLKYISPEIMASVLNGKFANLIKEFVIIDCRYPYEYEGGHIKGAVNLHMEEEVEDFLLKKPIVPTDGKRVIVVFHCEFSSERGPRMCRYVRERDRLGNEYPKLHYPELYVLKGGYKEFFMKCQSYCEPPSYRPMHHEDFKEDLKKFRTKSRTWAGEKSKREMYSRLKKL
Type: biochemical
From the text: (§1) Assay protocols for Cdc25A, 11βHSD1, 11βHSD2, and AChE are described in detain in the publication of Koch M A, Wittenberg L O, Basu S, Jeyaraj D A, Gourzoulidou E, Reinecke K, Odermatt A, Waldmann H (Proc. Natl. Acad. Sci. U.S.A. 2004 Nov. 30; 101(48):16721-6) and in Koch M A et al., Proc. Natl. Acad. Sci. U.S.A. 2005 Nov. 29; 102 (48):17272-7.

Row | Compound | IC50 [µM]
1 | C=CC[C@]12C(CCC[C@@H]1O)C(C)C(=O)/C(=C/c1cccc(C#Cc3cccc(F)c3)c1)[C@@H]2C (stereo partly drawn) [Compound 353, (E,4R,4aR,5S)-3-{3-[2-(3-Fluorphenyl)ethinyl]benzyliden}-4a-allyl-octahydro-5-hydroxy-1,4-dimethylnaphthalen-2(1H)-one] | 10 to 50
2 | C[C@]12C/C(=C\c3ccccc3C#Cc3cccc(F)c3)C(=O)C=C1CCC[C@@H]2O [Compound 325, (3E,4aS,5S)-3-{2-[2-(3-Fluorphenyl)ethinyl]benzyliden}-4,4a,5,6,7,8-hexahydro-5-hydroxy-4a-methylnaphthalen-2(3H)-one] | 10 to 50
3 | (35,4aS,5S)-3-[4-(17-Ethinyl-ostradiol)benzyliden]-4,4a,5,6,7,8-hexahydro-5-hydroxy-1,4a-dimethylnaphthalen-2(3H)-one [Compound 54] | < 10
4 | CC1=C2CCC[C@H](O)[C@@]2(C)C/C(=C\c2cccc(C#Cc3cccc(F)c3)c2)C1=O [Compound 350, (3E,4aS,5S)-3-{3-[2-(3-Fluorphenyl)ethinyl]benzyliden}-4,4a,5,6,7,8-hexahydro-5-hydroxy-1,4a-dimethylnaphthalen-2(3H)-one] | 10 to 50
5 | CC1=C2CCC[C@H](O)[C@@]2(C)C/C(=C\c2ccccc2I)C1=O [Compound 67, (3E,4aS,5S)-3-(2-Iodbenzyliden)-4,4a,5,6,7,8-hexahydro-5-hydroxy-1,4a-dimethylnaphthalen-2(3H)-one] | 10 to 50
6 | CCN(CC#Cc1ccc(/C=C2\C[C@@]3(C)C(=C(C)C2=O)CCC[C@@H]3O)cc1)Cc1ccccc1 [Compound 50, (3E,4aS,5S)-3-{4-[3-(N-Ethyl-N-benzylamino)prop-1-inyl]-benzyliden}-4,4a,5,6,7,8-hexahydro-5-hydroxy-1,4a-dimethylnaphthalen-2(3H)-one] | < 10
7 | C[C@H]1/C(=C\c2ccccc2C#Cc2cccc(F)c2)C(=O)C=C2CCC[C@H](O)[C@]21C [Compound 335, (3E,4R,4aS,5S)-3-{2-[2-(3-Fluorphenyl)ethinyl]benzyliden}-4,4a,5,6,7,8-hexahydro-5-hydroxy-4,4a-dimethylnaphthalen-2(3H)-one] | 10 to 50

The compounds below were run against 11beta-HSD1 (Homo sapiens, UniProt P28845) (assay: not given). Settings: read-out: IC50 Target 11beta-HSD1.
Type: biochemical
From the text: as §1

Row | Compound | IC50 [µM]
8 | CC1=C2CCC[C@H](O)[C@@]2(C)C/C(=C\c2ccc(F)cc2)C1=O [Compound 85, (3E,4aS,5S)-3-(4-Fluorbenzyliden)-4,4a,5,6,7,8-hexahydro-5-hydroxy-1,4a-dimethylnaphthalen-2(3H)-one] | < 10
